No constants are given. Whether binding was seen depends on the method and setting. For some assays here: Binding seen in cells or lysates may run through a third protein. Some entries that bind do so weakly or less than the wild type. For some assays here: Tags and fused reporters may be left off the sequences shown.
Experiments:
[1] = biological target: T1, SAG114 SnRK3.25 fused with the GAL4 binding domain (pGBT9-SAG114) (Arabidopsis thaliana) (UniProt Q8W1D5); experiment: two-hybrid; pGAD424-SAG113 (GAL4 activation domain) in PJ69-4α mated with pGBT9-SAG114 (GAL4 binding domain) in PJ69-4A; diploid cells streaked on SD/-Trp/-Leu/-His/-Ade plate
T1 sequence: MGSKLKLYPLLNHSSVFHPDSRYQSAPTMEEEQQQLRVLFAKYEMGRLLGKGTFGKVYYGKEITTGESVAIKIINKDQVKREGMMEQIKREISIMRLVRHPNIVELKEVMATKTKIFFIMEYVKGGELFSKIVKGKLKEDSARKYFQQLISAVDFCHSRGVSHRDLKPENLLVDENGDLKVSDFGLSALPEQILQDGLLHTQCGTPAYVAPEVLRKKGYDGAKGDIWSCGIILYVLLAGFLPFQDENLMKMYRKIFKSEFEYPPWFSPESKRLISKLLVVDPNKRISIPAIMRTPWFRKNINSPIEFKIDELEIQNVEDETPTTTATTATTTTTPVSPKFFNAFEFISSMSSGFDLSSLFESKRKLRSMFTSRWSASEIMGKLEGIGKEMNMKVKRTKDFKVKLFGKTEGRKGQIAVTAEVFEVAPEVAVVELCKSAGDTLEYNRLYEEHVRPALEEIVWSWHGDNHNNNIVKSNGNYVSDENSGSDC

[2] = biological target: T2, SAG114-YFPC (Arabidopsis thaliana) (UniProt Q8W1D5); experiment: split reporter; BiFC of SAG113-YFPN and SAG114-YFPC co-expressed in Arabidopsis mesophyll protoplasts; YFP fluorescence imaged 2 d after infiltration
T2 sequence: T1 sequence

B1: SAG113 PP2C fused with the GAL4 activation domain (pGAD424-SAG113) (enzyme, UniProt Q9FIF5 1-413)
chain: MAEICYENETMMIETTATVVKKATTTTRRRERSSSQAARRRRMEIRRFKFVSGEQEPVFVDGDLQRRRRRESTVAASTSTVFYETAKEVVVLCESLSSTVVALPDPEAYPKYGVASVCGRRREMEDAVAVHPFFSRHQTEYSSTGFHYCGVYDGHGCSHVAMKCRERLHELVREEFEADADWEKSMARSFTRMDMEVVALNADGAAKCRCELQRPDCDAVGSTAVVSVLTPEKIIVANCGDSRAVLCRNGKAIALSSDHKPDRPDELDRIQAAGGRVIYWDGPRVLGVLAMSRAIGDNYLKPYVISRPEVTVTDRANGDDFLILASDGLWDVVSNETACSVVRMCLRGKVNGQVSSSPEREMTGVGAGNVVVGGGDLPDKACEEASLLLTRLALARQSSDNVSVVVVDLRRDT
binding [1]: binds

B2: SAG113-YFPN (enzyme, UniProt Q9FIF5 1-413)
chain: B1 chain
binding [2]: binds

Reference: paper PMC10614403
